Structures can show the parent of a compound that is named as a salt. Some of the results follow. The calls rarely recur for the same compound in another form.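 Kinases were expressed as nanoluciferase fusions in K562 cells and luminescence was read every 4 h between 2 and 18 h as percent of control, DMSO set to 100% and a positive control to 0%. A time point counts as decreased when the signal drops significantly (2 sigma). The hit call is the authors' own, does not follow from the count of time points alone, and its rule is not shown.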
Target: SYK (UniProt P43405)
Assay: kinase-Nluc reporter destabilization hit call (1 = scored as downregulated) (binary); higher = compound decreases kinase abundance
Conditions: 10 µM; K562; 2-18 h

kinase-Nluc reporter destabilization hit call, inactive:
COc1ncc(F)cc1CNc1ccc(Cc2c[nH]c3ncc(C)cc23)c(F)n1 [PLX5622 (hemifumarate)] 0
C#Cc1cccc(Nc2ncnc3cc(OCCOC)c(OCCOC)cc23)c1 [Erlotinib] 0
Oc1cccc(-c2nc(N3CCOCC3)c3oc4ncccc4c3n2)c1 0
C#Cc1cccc(Nc2ncnc3cc(OCCOC)c(OCCO)cc23)c1 [Desmethyl Erlotinib (hydrochloride)] 0
C[C@@H](N)[C@H]1CC[C@H](C(=O)Nc2ccncc2)CC1 0
C#Cc1cccc(Nc2ncnc3cc4c(cc23)OCCOCCOCCO4)c1 [Icotinib] 0
C#Cc1cccc(Nc2ncnc3cc4c(cc23)OCCOCCOCCO4)c1 [Icotinib (Hydrochloride)] 0
O=C(c1ccc(F)c(F)c1Nc1ccc(I)cc1F)N1CC(O)([C@@H]2CCCCN2)C1 [Cobimetinib] 0
COc1cc2nccc(Nc3cc(OC)c(OC)c(OC)c3)c2cc1OC [GAK inhibitor 49 (hydrochloride)] 0
O=C(c1ccc(F)c(F)c1Nc1ccc(I)cc1F)N1CC(O)([C@@H]2CCCCN2)C1 [Cobimetinib (hemifumarate)] 0
C=CC(=O)Nc1cc(Nc2ncc(C(=O)OC(C)C)c(-c3cn(C)c4ccccc34)n2)c(OC)cc1N(C)CCN(C)C [Mobocertinib (succinate)] 0
CNC(=O)c1ccccc1Nc1cc(Nc2ccc(N3CCOCC3)cc2OC)ncc1C(F)(F)F [PND-1186 (hydrochloride)] 0
Cc1cccc(/C=N/Nc2cc(N3CCOCC3)nc(OCCc3ccccn3)n2)c1 [Apilimod (mesylate)] 0
O=C(O)c1ccc2c(c1)nc(Nc1cccc(Cl)c1)c1ccncc12 [Silmitasertib (sodium salt)] 0
C[C@H](CCC(=O)NCCS(=O)(=O)O)[C@H]1CC[C@H]2[C@@H]3[C@@H](O)C[C@@H]4C[C@H](O)CC[C@]4(C)[C@H]3CC[C@]12C [Tauroursodeoxycholate (dihydrate)] 0
COc1cc2c(cc1OC)-c1c(C)c3ccc(OC)c(OC)c3c[n+]1CC2 [Dehydrocorydaline (chloride)] 0
Clc1ccc(C2(c3ccc(-c4cn[nH]c4)cc3)CCNCC2)cc1 0
CCCC(=O)Nc1ncnc2c1ncn2[C@@H]1O[C@@H]2COP(=O)(O)O[C@H]2[C@H]1OC(=O)CCC [Bucladesine (calcium)] 0
CCS(=O)(=O)N1CCN(c2ccc(Nc3ncc(C(N)=O)c(NC4CC4)n3)cc2)CC1 [Cerdulatinib] 0
CCS(=O)(=O)N1CC(CC#N)(n2cc(-c3ncnc4[nH]ccc34)cn2)C1 [Baricitinib (phosphate)] 0
FC(F)(F)c1ccc(CNc2ccc(Cc3c[nH]c4ncc(Cl)cc34)cn2)cn1 [Pexidartinib (hydrochloride)] 0
O=C(Nc1cnn2ccc(N3CCC[C@@H]3c3cc(F)ccc3F)nc12)N1CC[C@H](O)C1 [Larotrectinib sulfate] 0
C[C@@H](N)c1ccc(C(=O)Nc2ccnc3[nH]ccc23)cc1 0
C[S+]([O-])c1ccc(-c2nc(-c3ccc(F)cc3)c(-c3ccncc3)[nH]2)cc1 (stereo not given) 0
CS(=O)(=O)N1CCN(Cc2cc3nc(-c4cccc5[nH]ncc45)nc(N4CCOCC4)c3s2)CC1 [Pictilisib (dimethanesulfonate)] 0

A portion taken from the entries so far:
kinase-Nluc reporter destabilization hit call, inactive:
C#Cc1cccc(Nc2ncnc3cc4c(cc23)OCCOCCOCCO4)c1 [Icotinib] 0
C#Cc1cccc(Nc2ncnc3cc4c(cc23)OCCOCCOCCO4)c1 [Icotinib (Hydrochloride)] 0
